According to patent publication US20200316038A1, “METHODS AND COMPOSITIONS FOR TREATING UREA CYCLE DISORDERS, IN PARTICULAR OTC DEFICIENCY” (CAMP4 THERAPEUTICS CORPORATION, priority 2017, published 2020):
At least one structure is not confirmed: it was looked up by name or label, or the drawing left a doubt.

System: multiple urea cycle-related genes
Assay: RNA-seq, compounds that modulate multiple urea cycle-related genes
Assay type: cell-based
Conditions: primary human hepatocytes

SMILES	number of urea cycle genes whose expression was significantly up-regulated	Up-regulated Genes (urea cycle-related genes significantly increased by the compound)
C=CCNC1=C2C[C@@H](C)C[C@H](OC)[C@H](O)[C@@H](C)/C=C(\C)[C@H](OC(N)=O)[C@@H](OC)/C=C\C=C(/C)C(=O)NC(=CC1=O)C2=O [17-AAG (Tanespimycin), Tanespimycin]	three	CPS1, ARG1, SLC25A13
COc1cc(Nc2c(C#N)cnc3cc(OCCCN4CCN(C)CC4)c(OC)cc23)c(Cl)cc1Cl [Bosutinib]	five	
